Data as given in PubChem BioAssay AID504774 (Drosophila RNAi Screening Center, 2011).

- Aim: 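Fly genes whose loss alters survival after alkylation damage to DNA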 (primary screen)
- System: Drosophila Kc167 cells
- Knock-down reagent: long dsRNA against Drosophila genes, about 0.25 µg dsRNA per well
- Time to read-out: about 6 days: 3 days knock-down, then 3 days with or without MMS
- Challenge: methyl methanesulphonate 0.004% (w/v) for 3 days after knock-down
- Measurement: 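ATP-dependent luminescence as a measure of live cells in MMS-exposed wells, quantile normalised within each plate, with replicate values also given as a mean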
- Scale: mean viability with MMS: higher = more surviving cells after MMS
The deposit covers about 23,000 reagents; below is an unselected part of those with a known target gene and a result. 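Values are quantile-normalised luminescence on an arbitrary scale; higher means more cells surviving MMS.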 Names joined by + are all predicted targets of the reagent. Not all columns of the deposit are shown. Reagent sequences are not shown.

mean viability with MMS, by target gene and reagent
CG13725: DRSC10054 1.73e6
CG34174: DRSC00101 3.61e6
ppk22: DRSC22093 3.53e6
Polr2M: DRSC15513 3.22e6
Tsp42El: DRSC06186 3.59e6
CG12493: DRSC08279 3.69e6
pwn: DRSC06035 3.55e6
side-IV: DRSC14833 3.58e6
CG13679: DRSC10037 3.41e6; DRSC22749 3.66e6
Ccz1: DRSC08439 3.47e6
TkR99D: DRSC16881 3.52e6
CNPYb: DRSC09845 3.60e6
PGRP-LB: DRSC14926 3.61e6
Gem3: DRSC11144 3.50e6
IscU: DRSC16572 3.05e6
dao: DRSC01960 3.64e6
CG13857: DRSC14707 3.50e6
mRpL39: DRSC10255 3.62e6
m: DRSC20181 3.43e6
Pgcl: DRSC18815 3.55e6
Gel: DRSC12350 3.51e6
MBD-R2: DRSC14180 3.54e6
Nnk: DRSC15274 3.55e6
ecd: DRSC08574 3.46e6
CG12948: DRSC14576 3.68e6
lcs: DRSC20580 3.53e6
CG15473: DRSC18056 3.59e6
Cdc7: DRSC18428 3.81e6; DRSC18429 3.54e6; DRSC22133 3.54e6
CG18428: DRSC15326 3.45e6
GstO2: DRSC10691 3.48e6
CG12729: DRSC17884 3.57e6
CG4270: DRSC00648 3.45e6
DNAlig4: DRSC19436 3.45e6
CG7179: DRSC03020 3.31e6
alpha-Est3: DRSC12615 3.47e6
Sk1: DRSC19774 3.37e6
CG2924: DRSC18525 3.63e6
E(spl)m6-BFM: DRSC16993 3.66e6
maf-S: DRSC07348 3.30e6
CG2865: DRSC18527 3.66e6; DRSC18528 1.32e6
kermit: DRSC06074 3.64e6
TrpRS: DRSC14097 3.42e6
Lint-1: DRSC19822 3.52e6
Cyp18a1: DRSC20235 3.47e6
CG12398: DRSC19454 3.34e6
CG30278: DRSC22787 3.32e6
Spred: DRSC05976 3.63e6
CG2113: DRSC08554 3.54e6
CG9825: DRSC04569 3.62e6
chif: DRSC03508 3.78e6
CG14085: DRSC10089 3.52e6
betaNACtes1: DRSC19534 3.68e6
Rbcn-3A: DRSC18314 3.38e6
HP1b: DRSC18418 3.46e6
zf30C: DRSC03641 3.51e6
IFT43: DRSC02892 3.60e6
CG14383: DRSC14841 3.38e6
CG31686 (retired record): DRSC00102 3.50e6
Prosalpha4: DRSC20271 3.39e6
FASN1: DRSC00268 3.41e6
Arglu1: DRSC02909 3.41e6
Dnai2: DRSC10575 3.62e6
Tak1: DRSC20390 3.64e6; DRSC20561 3.50e6; DRSC20562 3.65e6
CG13344: DRSC06378 3.72e6
CG14483: DRSC06455 3.60e6
asun: DRSC16733 3.56e6
CG1503: DRSC20512 3.49e6
yellow-e: DRSC12966 3.78e6; DRSC16563 3.62e6
CG15040: DRSC19616 1.97e6; DRSC21482 3.47e6
l(2)k09022: DRSC02108 3.19e6
ICA69: DRSC11621 3.55e6
mbm + CG11555: DRSC00315 3.43e6
rtp: DRSC12132 3.46e6
CG31464: DRSC14345 3.57e6
Mal-A5: DRSC07232 3.58e6
thr: DRSC07706 3.15e6
Dnaaf3: DRSC06684 3.69e6
drd: DRSC19343 3.48e6; DRSC21466 3.58e6

Laid out differently: entries from further up
| target gene | DRSC id | mean viability with MMS |
| --- | --- | --- |
| dao | DRSC01960 | 3.64e6 |
| CG13857 | DRSC14707 | 3.50e6 |
| mRpL39 | DRSC10255 | 3.62e6 |
| m | DRSC20181 | 3.43e6 |
| Pgcl | DRSC18815 | 3.55e6 |
